Laboratory results: the supplement of paper PMC10849652
This is one part of the list.

By UniProt entry, the sequences of proteins in these tests, tags left out. Where a name states a change or a piece, a line headed by the entry shows the natural chain unless it says otherwise.
UniProt Q9Y6I3: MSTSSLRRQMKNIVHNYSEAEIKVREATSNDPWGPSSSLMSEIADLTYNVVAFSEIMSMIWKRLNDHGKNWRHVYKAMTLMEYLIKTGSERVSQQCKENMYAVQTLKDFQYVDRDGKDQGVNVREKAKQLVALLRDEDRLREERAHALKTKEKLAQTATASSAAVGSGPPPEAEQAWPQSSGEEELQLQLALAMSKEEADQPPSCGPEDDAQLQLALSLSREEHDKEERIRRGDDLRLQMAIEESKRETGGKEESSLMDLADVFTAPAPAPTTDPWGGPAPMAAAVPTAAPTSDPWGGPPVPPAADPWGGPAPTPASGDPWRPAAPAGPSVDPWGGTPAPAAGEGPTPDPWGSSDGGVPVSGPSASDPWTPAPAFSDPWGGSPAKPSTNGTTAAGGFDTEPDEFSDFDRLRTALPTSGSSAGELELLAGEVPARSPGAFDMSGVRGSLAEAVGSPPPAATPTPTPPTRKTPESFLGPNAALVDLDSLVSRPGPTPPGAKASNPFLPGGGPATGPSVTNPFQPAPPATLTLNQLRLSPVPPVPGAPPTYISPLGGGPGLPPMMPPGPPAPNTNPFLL
UniProt Q99504: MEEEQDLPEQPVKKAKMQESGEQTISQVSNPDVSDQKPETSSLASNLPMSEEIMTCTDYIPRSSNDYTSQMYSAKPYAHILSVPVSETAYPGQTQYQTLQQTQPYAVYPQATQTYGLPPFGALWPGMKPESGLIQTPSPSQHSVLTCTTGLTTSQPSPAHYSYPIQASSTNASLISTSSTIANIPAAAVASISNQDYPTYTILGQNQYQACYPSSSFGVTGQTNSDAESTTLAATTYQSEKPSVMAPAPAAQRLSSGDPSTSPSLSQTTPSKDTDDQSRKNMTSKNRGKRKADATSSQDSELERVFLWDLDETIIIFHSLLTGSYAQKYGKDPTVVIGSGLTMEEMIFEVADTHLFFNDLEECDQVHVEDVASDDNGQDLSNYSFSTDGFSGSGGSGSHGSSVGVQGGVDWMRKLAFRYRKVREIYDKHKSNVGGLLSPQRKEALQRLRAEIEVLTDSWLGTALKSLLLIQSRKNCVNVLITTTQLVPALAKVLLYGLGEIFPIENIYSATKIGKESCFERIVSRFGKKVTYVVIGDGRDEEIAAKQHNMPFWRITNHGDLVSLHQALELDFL
UniProt Q9H2F5, whole entry, looked up: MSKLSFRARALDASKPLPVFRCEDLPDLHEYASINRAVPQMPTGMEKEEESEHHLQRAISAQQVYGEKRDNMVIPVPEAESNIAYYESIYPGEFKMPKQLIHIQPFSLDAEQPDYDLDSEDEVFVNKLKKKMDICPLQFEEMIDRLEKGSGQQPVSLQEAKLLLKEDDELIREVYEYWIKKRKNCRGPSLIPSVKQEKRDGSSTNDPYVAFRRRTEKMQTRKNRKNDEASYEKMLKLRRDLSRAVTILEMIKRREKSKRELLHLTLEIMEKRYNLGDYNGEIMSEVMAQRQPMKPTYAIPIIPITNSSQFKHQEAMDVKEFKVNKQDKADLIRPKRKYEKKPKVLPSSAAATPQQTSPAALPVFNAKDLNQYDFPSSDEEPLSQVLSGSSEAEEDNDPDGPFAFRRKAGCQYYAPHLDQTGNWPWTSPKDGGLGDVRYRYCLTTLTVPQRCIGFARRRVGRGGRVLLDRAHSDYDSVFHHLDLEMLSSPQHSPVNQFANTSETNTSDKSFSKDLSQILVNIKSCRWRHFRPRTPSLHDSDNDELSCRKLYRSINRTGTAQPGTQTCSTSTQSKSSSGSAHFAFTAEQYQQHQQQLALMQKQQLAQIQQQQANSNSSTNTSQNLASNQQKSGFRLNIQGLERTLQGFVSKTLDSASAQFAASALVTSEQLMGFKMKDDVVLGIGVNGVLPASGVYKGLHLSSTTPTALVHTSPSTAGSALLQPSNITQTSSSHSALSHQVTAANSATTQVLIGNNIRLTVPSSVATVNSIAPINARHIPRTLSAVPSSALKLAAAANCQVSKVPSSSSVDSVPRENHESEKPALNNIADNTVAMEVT
UniProt Q96RI0: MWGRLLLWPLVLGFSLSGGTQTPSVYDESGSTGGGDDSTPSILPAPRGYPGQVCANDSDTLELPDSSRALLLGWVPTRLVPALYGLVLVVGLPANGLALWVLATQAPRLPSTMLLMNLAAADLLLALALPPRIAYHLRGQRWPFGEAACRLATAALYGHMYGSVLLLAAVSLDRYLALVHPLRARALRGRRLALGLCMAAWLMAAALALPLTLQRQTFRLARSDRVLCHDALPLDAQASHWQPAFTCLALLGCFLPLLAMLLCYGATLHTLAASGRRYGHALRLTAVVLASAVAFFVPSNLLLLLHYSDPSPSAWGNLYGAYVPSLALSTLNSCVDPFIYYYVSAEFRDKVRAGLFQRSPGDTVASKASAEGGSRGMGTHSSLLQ
UniProt Q5T8I3: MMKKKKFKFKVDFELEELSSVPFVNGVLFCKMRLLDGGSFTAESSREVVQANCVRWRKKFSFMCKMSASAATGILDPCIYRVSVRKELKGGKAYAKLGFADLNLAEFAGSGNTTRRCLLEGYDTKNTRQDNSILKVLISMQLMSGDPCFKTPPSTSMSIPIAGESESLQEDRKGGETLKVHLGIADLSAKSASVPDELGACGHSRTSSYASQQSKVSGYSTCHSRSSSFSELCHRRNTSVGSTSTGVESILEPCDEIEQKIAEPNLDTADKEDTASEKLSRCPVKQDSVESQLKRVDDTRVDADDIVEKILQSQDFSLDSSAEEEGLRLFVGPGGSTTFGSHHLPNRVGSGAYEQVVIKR
UniProt P25116: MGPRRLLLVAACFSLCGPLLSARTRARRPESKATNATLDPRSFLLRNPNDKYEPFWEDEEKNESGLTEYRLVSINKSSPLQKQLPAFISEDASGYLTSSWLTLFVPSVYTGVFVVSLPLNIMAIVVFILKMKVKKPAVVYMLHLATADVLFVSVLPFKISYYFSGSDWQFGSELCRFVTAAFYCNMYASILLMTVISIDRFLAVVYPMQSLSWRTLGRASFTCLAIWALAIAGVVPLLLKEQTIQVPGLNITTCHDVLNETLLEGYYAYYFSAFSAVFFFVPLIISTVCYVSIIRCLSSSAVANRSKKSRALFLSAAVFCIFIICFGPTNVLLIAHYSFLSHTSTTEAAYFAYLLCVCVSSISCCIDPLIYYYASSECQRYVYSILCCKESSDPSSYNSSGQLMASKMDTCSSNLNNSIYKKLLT
UniProt O95864: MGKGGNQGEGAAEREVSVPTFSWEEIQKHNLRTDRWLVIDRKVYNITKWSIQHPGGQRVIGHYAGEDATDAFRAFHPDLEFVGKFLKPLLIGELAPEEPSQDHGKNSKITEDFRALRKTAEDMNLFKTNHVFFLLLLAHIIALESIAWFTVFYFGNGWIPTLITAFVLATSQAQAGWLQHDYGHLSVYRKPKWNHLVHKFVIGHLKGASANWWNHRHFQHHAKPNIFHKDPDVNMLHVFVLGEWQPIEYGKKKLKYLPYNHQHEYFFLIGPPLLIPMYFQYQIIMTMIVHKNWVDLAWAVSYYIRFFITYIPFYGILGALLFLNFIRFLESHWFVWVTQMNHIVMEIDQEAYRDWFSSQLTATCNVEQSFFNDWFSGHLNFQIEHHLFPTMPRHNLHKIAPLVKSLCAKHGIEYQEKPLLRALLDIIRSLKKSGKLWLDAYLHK
UniProt Q9NVM1: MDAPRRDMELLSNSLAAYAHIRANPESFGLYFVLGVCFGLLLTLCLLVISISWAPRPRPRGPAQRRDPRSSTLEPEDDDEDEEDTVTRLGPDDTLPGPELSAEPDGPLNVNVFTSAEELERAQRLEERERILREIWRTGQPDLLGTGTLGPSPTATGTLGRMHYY
UniProt Q9HCM4: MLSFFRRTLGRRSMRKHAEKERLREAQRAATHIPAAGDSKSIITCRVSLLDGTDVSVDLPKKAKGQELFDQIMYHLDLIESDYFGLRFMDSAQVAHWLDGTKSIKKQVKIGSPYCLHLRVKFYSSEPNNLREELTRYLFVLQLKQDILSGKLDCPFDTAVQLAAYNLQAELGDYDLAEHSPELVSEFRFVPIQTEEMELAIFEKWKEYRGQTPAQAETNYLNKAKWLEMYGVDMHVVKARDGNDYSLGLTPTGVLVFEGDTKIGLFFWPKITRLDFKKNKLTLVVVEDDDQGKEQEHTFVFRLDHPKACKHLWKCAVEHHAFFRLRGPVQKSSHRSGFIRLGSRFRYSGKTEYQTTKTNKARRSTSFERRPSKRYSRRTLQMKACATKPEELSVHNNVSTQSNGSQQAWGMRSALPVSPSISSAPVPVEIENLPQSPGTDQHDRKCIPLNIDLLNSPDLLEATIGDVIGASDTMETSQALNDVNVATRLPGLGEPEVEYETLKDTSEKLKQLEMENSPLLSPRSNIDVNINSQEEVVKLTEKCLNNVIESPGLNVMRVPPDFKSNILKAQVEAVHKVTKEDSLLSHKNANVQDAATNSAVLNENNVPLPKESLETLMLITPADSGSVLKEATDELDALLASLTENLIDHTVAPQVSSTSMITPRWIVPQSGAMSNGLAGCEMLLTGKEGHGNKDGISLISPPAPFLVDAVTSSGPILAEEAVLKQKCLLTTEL
UniProt Q6P179: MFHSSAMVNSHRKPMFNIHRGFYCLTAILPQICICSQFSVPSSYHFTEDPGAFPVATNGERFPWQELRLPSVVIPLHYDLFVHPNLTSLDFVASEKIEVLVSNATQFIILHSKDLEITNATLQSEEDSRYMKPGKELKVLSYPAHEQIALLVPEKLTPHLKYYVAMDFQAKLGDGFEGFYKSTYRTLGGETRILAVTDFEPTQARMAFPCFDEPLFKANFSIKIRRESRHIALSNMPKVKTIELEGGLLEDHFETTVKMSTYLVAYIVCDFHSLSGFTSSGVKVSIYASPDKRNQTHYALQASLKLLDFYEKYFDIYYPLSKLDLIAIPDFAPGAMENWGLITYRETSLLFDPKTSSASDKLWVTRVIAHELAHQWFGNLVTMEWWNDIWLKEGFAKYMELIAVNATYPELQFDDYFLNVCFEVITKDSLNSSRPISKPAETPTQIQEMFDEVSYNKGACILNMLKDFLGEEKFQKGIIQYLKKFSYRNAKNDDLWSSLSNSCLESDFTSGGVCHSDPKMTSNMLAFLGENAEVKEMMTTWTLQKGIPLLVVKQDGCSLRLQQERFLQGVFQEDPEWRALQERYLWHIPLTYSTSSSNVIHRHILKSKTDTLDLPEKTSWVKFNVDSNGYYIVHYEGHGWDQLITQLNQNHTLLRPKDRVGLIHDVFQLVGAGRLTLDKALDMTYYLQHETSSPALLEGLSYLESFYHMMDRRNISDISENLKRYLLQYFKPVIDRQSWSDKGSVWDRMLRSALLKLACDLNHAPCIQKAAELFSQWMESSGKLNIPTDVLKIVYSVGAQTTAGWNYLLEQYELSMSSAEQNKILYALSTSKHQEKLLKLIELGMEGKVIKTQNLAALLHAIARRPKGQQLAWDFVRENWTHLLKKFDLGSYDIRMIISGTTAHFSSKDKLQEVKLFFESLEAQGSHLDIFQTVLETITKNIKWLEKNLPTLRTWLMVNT
UniProt Q9H098: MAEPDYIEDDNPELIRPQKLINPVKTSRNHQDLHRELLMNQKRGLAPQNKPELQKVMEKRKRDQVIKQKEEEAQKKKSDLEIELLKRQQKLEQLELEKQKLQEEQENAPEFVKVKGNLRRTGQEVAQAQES

Columns and labels:
Assay in all cases: log2 fold change, soluble protein after heating vs DMSO (PISA); higher = thermal stabilisation; K562 cells, 10 uM, 30 min; active = over 0.2 and 3.5 SD of the protein, either way, in both replicates (recomputed)
duvelisib = compound: C[C@H](Nc1ncnc2nc[nH]c12)c1cc2cccc(Cl)c2c(=O)n1-c1ccccc1 [duvelisib]
How it was run: (§1)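 K562 cells at 2×10^6 cells/mL were given 10 μM compound for 30 min. Aliquots then went through 3 min of heating across 48°C-58°C, were pooled, and were extracted in PBS with 0.5% NP-40 at 4°C, and the supernatant after 21,000xg for 90 min was quantified by TMTpro 16plex LC-MS/MS with channel sums equalised. Thermal stability relative to control samples, from duplicates, is given as log2 fold change.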

[1] = compound: Cc1cc(SCc2sc(-c3ccc(C(F)(F)F)cc3)nc2C)ccc1OCC(=O)O
How it was run: as §1

bafetinib = compound: Cc1ccc(NC(=O)c2ccc(CN3CC[C@H](N(C)C)C3)c(C(F)(F)F)c2)cc1Nc1nccc(-c2cncnc2)n1 [bafetinib]
How it was run: as §1

dasatinib = compound: Cc1nc(Nc2ncc(C(=O)Nc3c(C)cccc3Cl)s2)cc(N2CCN(CCO)CC2)n1 [dasatinib]
How it was run: as §1

[2] = compound: C[C@H](C1=CC=C(C=C1)C(=O)NC2=C3C=CNC3=NC=C2)N
How it was run: as §1

gandotinib = compound: Cc1cc(Nc2cc(CN3CCOCC3)c3nc(C)c(Cc4ccc(Cl)cc4F)n3n2)n[nH]1 [gandotinib]
How it was run: as §1

tozasertib = compound: Cc1cc(Nc2cc(N3CCN(C)CC3)nc(Sc3ccc(NC(=O)C4CC4)cc3)n2)n[nH]1 [tozasertib]
How it was run: as §1

[3] = compound: Cc1cccc(CC(=O)N2CCc3c2ccc(-c2cn(C)c4ncnc(N)c24)c3F)n1
How it was run: as §1

[4] = compound: Cn1cc(-c2ccc3c(c2)CCN3C(=O)Cc2cccc(C(F)(F)F)c2)c2c(N)ncnc21
How it was run: as §1

mubritinib = compound: FC(F)(F)c1ccc(/C=C/c2nc(COc3ccc(CCCCn4ccnn4)cc3)co2)cc1 [mubritinib]
How it was run: as §1

crizotinib = compound: C[C@@H](Oc1cc(-c2cnn(C3CCNCC3)c2)cnc1N)c1c(Cl)ccc(F)c1Cl [crizotinib]
How it was run: as §1

doramapimod = compound: Cc1ccc(-n2nc(C(C)(C)C)cc2NC(=O)Nc2ccc(OCCN3CCOCC3)c3ccccc23)cc1 [doramapimod]
How it was run: as §1

[5] = compound: C[C@@H]1COCCN1C2=NC(=NC(=C2)C3(CC3)S(=O)(=O)C)C4=C5C=CNC5=CC=C4
How it was run: as §1

ispinesib = compound: Cc1ccc(C(=O)N(CCCN)[C@@H](c2nc3cc(Cl)ccc3c(=O)n2Cc2ccccc2)C(C)C)cc1 [ispinesib]
How it was run: as §1

[6] = compound: Cn1cc(-c2ccc3nnc(C(F)(F)c4ccc5ncccc5c4)n3n2)cn1
How it was run: as §1

tipifarnib = compound: Cn1cncc1[C@@](N)(c1ccc(Cl)cc1)c1ccc2c(c1)c(-c1cccc(Cl)c1)cc(=O)n2C [tipifarnib]
How it was run: as §1

nilotinib = compound: Cc1cn(-c2cc(NC(=O)c3ccc(C)c(Nc4nccc(-c5cccnc5)n4)c3)cc(C(F)(F)F)c2)cn1 [nilotinib]
How it was run: as §1

[7] = compound: Cc1nc(Nc2n[nH]c3c2CN(C(=O)N[C@H](CN(C)C)c2ccccc2)C3(C)C)c2sccc2n1
How it was run: as §1

[8] = compound: Cc1ncc(-c2ccnc(Nc3ccc(S(C)(=O)=O)cc3)n2)n1C(C)C
How it was run: as §1

Measured: log2 fold change

EPN1 isoform 3 (UniProt Q9Y6I3)
inactive: duvelisib -0.046 | [1] 0.232 | bafetinib 0.025 | dasatinib 0.148

EYA3 (UniProt Q99504)
inactive: [2] 0.179 | gandotinib -0.261 | tozasertib 0.043 | [3] 0.053 | [4] 0.149 | mubritinib -0.157

FADS1 (UniProt F5GYH4)
inactive: crizotinib -0.079 | doramapimod 0.106 | bafetinib 0.034

EPHX2 (UniProt E5RI53)
inactive: [5] 0.067 | bafetinib -0.17

EPC1 (UniProt Q9H2F5)
inactive: ispinesib -0.233 | [6] 0.136 | mubritinib -0.47

F2RL3 (UniProt Q96RI0)
inactive: [2] -0.159 | [1] -0.059 | ispinesib 0.004 | dasatinib -0.03 | [4] -0.051 | [6] 0.043 | tipifarnib -0.016

FAM102B (UniProt Q5T8I3)
inactive: [5] -0.159 | ispinesib 0.039 | [6] 0.032 | tipifarnib -0.03

F2R (UniProt P25116)
inactive: [2] -0.087 | gandotinib 0 | tozasertib 0.195 | [3] 0.114 | [4] -0.077 | tipifarnib 0.006

FAM174A (UniProt Q8TBP5)
inactive: crizotinib -0.165 | tozasertib -0.065 | doramapimod 0.027

FADS2 (UniProt O95864)
inactive: gandotinib -0.217 | [3] -0.346

Random excerpt: two records from the list, in no set order.
F2RL3 (UniProt Q96RI0)
inactive: [2] -0.159 | [1] -0.059 | ispinesib 0.004 | dasatinib -0.03 | [4] -0.051 | [6] 0.043 | tipifarnib -0.016

FAM174A (UniProt Q8TBP5)
inactive: crizotinib -0.165 | tozasertib -0.065 | doramapimod 0.027

(list continues)

ETF1 isoform 2 (UniProt P62495)
inactive: duvelisib 0.047 | gandotinib -0.299 | [1] -0.144 | ispinesib -0.257 | bafetinib -0.18 | [3] 0.006 | dasatinib -0.047 | [6] 0.166 | tipifarnib 0.1

FAM120B (UniProt Q96EK7)
inactive: gandotinib 0.065 | [3] 0.367

EVA1B (UniProt Q9NVM1)
inactive: mubritinib -0.313

EPB41L5 (UniProt Q9HCM4)
inactive: [5] -0.032

ERAP2 (UniProt Q6P179)
inactive: [5] 0.135 | duvelisib 0.116 | [1] -0.078 | nilotinib 0.364 | [7] -0.034 | dasatinib 0.02 | [8] 0.029 | tipifarnib 0.022 | mubritinib -0.112

FAM171A2 (UniProt A8MVW0)
inactive: gandotinib -0.069 | ispinesib 0.115 | [3] -0.044 | [6] -0.155

FAM107B isoform 2 (UniProt Q9H098)
inactive: [5] -0.009 | duvelisib -0.017 | gandotinib -0.054 | [1] -0.041 | [3] -0.032 | dasatinib 0.005
